Experimental data as given in the supplement of paper PMC9744312.
Where a name gives a salt, the structure may show the parent alone. Some of the results follow. This is a noisy data set.

test system: Peyronie's disease tunica albuginea primary fibroblasts; assay: inhibition of TGF-beta1-induced alpha-SMA expression (myofibroblast transformation), relative to TGF-beta1-only and untreated controls; higher = stronger inhibition of myofibroblast transformation; settings: 10 µM; TGF-beta1 10 ng/mL; 72 h

Structure (SMILES) | inhibition of TGF-beta1-induced alpha-SMA expression
CC1(C)O[C@@H]2C[C@H]3[C@@H]4CCC5=CC(=O)CC[C@]5(C)[C@@]4(F)[C@@H](O)C[C@]3(C)[C@]2(C(=O)CCl)O1 [Halcinonide] | 73.2%
C=C1CCN([C@H](C)[C@](O)(Cn2cncn2)c2ccc(F)cc2F)CC1 [Efinaconazole] | 30.1%
O=C1C(CC[S+]([O-])c2ccccc2)C(=O)N(c2ccccc2)N1c1ccccc1 (racemic) [(+/-)-Sulfinpyrazone] | 8.42%
C[C@@H]1O[C@@H](OC[C@H]2O[C@@H](Oc3c(-c4ccc(OCCO)c(OCCO)c4)oc4cc(OCCO)cc(O)c4c3=O)[C@H](O)[C@@H](O)[C@@H]2O)[C@H](O)[C@H](O)[C@H]1O [Troxerutin] | -14.8%
CCN(CC)C(=O)/C(C#N)=C/c1cc(O)c(O)c([N+](=O)[O-])c1 [Entacapone] | -31%
C[C@@H](O)[C@H]1C(=O)N2C(C(=O)O)=C(S[C@@H]3CN[C@H](C(=O)N(C)C)C3)[C@H](C)[C@H]12 [Meropenem Trihydrate] | 89.8%
C[C@@H](O)[C@H]1C(=O)N2C(C(=O)O)=C(S[C@@H]3CN[C@H](C(=O)N(C)C)C3)[C@H](C)[C@H]12 [Meropenem] | 8.72%
COc1ccc(NC(=O)c2ccc(C(=N)N(C)C)cc2)c(C(=O)Nc2ccc(Cl)cn2)c1 [Betrixaban maleate] | 7.5%
COc1ccc(NC(=O)c2ccc(C(=N)N(C)C)cc2)c(C(=O)Nc2ccc(Cl)cn2)c1 [Betrixaban] | -4.71%
CC(=O)O[C@H]1C[C@@H]2CC[C@@H]3[C@H](CC[C@@]4(C)[C@H]3C[C@H]([N+]3(C)CCCCC3)[C@@H]4OC(C)=O)[C@@]2(C)C[C@@H]1N1CCCCC1 [Vecuronium Bromide] | 13.1%
Cc1cc(C)cc(OCC2CNC(=O)O2)c1 (stereo not drawn) [Metaxalone] | 0.64%
C#C[C@]1(O)CC[C@H]2[C@@H]3CCc4cc(O)ccc4[C@H]3CC[C@@]21C [Ethinyl Estradiol] | 50.9%
CN[C@@H]1[C@@H](O)[C@@H](O[C@@H]2[C@@H](O)[C@H](O[C@H]3O[C@H](CN)[C@@H](O)[C@H](O)[C@H]3O)[C@@H](N)C[C@H]2NC(=O)[C@@H](O)CN)OC[C@]1(C)O [Isepamicin Sulphate] | -9.99%
Cc1occc(=O)c1O [Maltol] | 14%
CCc1ccc(Cc2ccc3c(c2)[C@]2(OC3)O[C@H](CO)[C@@H](O)[C@H](O)[C@H]2O)cc1 [Tofogliflozin(CSG 452)] | -35.4%
CCOC(=O)C1=C(C)NC(C)=C(C(=O)OCC)C1c1ccccc1/C=C/C(=O)OC(C)(C)C [Lacidipine] | 49.3%
CCOc1cc(CC(=O)N[C@@H](CC(C)C)c2ccccc2N2CCCCC2)ccc1C(=O)O [Repaglinide] | 29.7%
CC(=O)OCC(=O)[C@@]1(O)[C@H](C)C[C@H]2[C@@H]3CCC4=CC(=O)C=C[C@]4(C)[C@@]3(F)[C@@H](O)C[C@@]21C [Dexamethasone Acetate] | 89.5%
COc1ncnc(NS(=O)(=O)c2ccc(N)cc2)c1OC [Sulfadoxine] | 35.5%
COc1ccc(C(=O)c2ccccc2)c(O)c1 [Oxybenzone] | 1.2%
COc1c(N2C[C@@H]3CCCN[C@@H]3C2)c(F)cc2c(=O)c(C(=O)O)cn(C3CC3)c12 [Moxifloxacin] | 13.5%
COc1c(N2C[C@@H]3CCCN[C@@H]3C2)c(F)cc2c(=O)c(C(=O)O)cn(C3CC3)c12 [Moxifloxacin HCl] | -13.8%

Some of the entries so far, tab-delimited:
Structure (SMILES)	inhibition of TGF-beta1-induced alpha-SMA expression
COc1ccc(NC(=O)c2ccc(C(=N)N(C)C)cc2)c(C(=O)Nc2ccc(Cl)cn2)c1 [Betrixaban]	-4.71%
CC(=O)O[C@H]1C[C@@H]2CC[C@@H]3[C@H](CC[C@@]4(C)[C@H]3C[C@H]([N+]3(C)CCCCC3)[C@@H]4OC(C)=O)[C@@]2(C)C[C@@H]1N1CCCCC1 [Vecuronium Bromide]	13.1%
Cc1cc(C)cc(OCC2CNC(=O)O2)c1 (stereo not drawn) [Metaxalone]	0.64%
C#C[C@]1(O)CC[C@H]2[C@@H]3CCc4cc(O)ccc4[C@H]3CC[C@@]21C [Ethinyl Estradiol]	50.9%
CN[C@@H]1[C@@H](O)[C@@H](O[C@@H]2[C@@H](O)[C@H](O[C@H]3O[C@H](CN)[C@@H](O)[C@H](O)[C@H]3O)[C@@H](N)C[C@H]2NC(=O)[C@@H](O)CN)OC[C@]1(C)O [Isepamicin Sulphate]	-9.99%
Cc1occc(=O)c1O [Maltol]	14%
CCc1ccc(Cc2ccc3c(c2)[C@]2(OC3)O[C@H](CO)[C@@H](O)[C@H](O)[C@H]2O)cc1 [Tofogliflozin(CSG 452)]	-35.4%
CCOC(=O)C1=C(C)NC(C)=C(C(=O)OCC)C1c1ccccc1/C=C/C(=O)OC(C)(C)C [Lacidipine]	49.3%
CCOc1cc(CC(=O)N[C@@H](CC(C)C)c2ccccc2N2CCCCC2)ccc1C(=O)O [Repaglinide]	29.7%
CC(=O)OCC(=O)[C@@]1(O)[C@H](C)C[C@H]2[C@@H]3CCC4=CC(=O)C=C[C@]4(C)[C@@]3(F)[C@@H](O)C[C@@]21C [Dexamethasone Acetate]	89.5%
COc1ncnc(NS(=O)(=O)c2ccc(N)cc2)c1OC [Sulfadoxine]	35.5%

The list goes on:

Structure (SMILES) | inhibition of TGF-beta1-induced alpha-SMA expression
CCCCOC(=O)c1ccccc1Nc1cccc(C(F)(F)F)c1 [Ufenamate] | 52.2%
COc1ccc(C(=O)CC(=O)c2ccc(C(C)(C)C)cc2)cc1 [Avobenzone] | 17.7%
Nc1nc2c(ncn2COCCO)c(=O)[nH]1 [Aciclovir] | 7.62%
COc1ccc2[nH]c([S@@+]([O-])Cc3ncc(C)c(OC)c3C)nc2c1 [Esomeprazole sodium] | -13%
COc1ccc2[nH]c([S@@+]([O-])Cc3ncc(C)c(OC)c3C)nc2c1 [NEXIUM (esomeprazole magnesium)] | 1.03%
CS(=O)(=O)N1CCN(Cc2cc3nc(-c4cccc5[nH]ncc45)nc(N4CCOCC4)c3s2)CC1 [Pictilisib (GDC-0941)] | 73%
CC(C)NCC(O)c1ccc(O)c(O)c1 (stereo not drawn) [Isoprenaline HCl] | 23.7%
CCCCC(CC)COC(=O)C=Cc1ccc(OC)cc1 (stereo not drawn) [Octinoxate] | 30.7%
CCOc1ccc(Cc2cc([C@]34OC[C@](CO)(O3)[C@@H](O)[C@H](O)[C@H]4O)ccc2Cl)cc1 [Ertugliflozin] | 47.2%
CCCC1O[C@@H]2C[C@H]3[C@@H]4CCC5=CC(=O)C=C[C@]5(C)[C@H]4[C@@H](O)C[C@]3(C)[C@]2(C(=O)CO)O1 (stereo partly drawn) [Budesonide] | 34.1%
COc1cc(C(C)=O)ccc1OCCCN1CCC(c2noc3cc(F)ccc23)CC1 [Iloperidone] | -2.23%
Cc1cccc(C)c1N(CC(=O)Nc1ccc(-c2ncon2)cc1)C(=O)C1CCS(=O)(=O)CC1 [Amenamevir] | 36.6%
O=NN(CCCl)C(=O)NCCCl [Carmustine] | -4.34%
CCOC(=O)c1ncn2c1CN(C)C(=O)c1cc(F)ccc1-2 [Flumazenil] | 3.13%
Cc1cc(C)c2c(c1)[C@@H](N(Cc1cc(C(F)(F)F)cc(C(F)(F)F)c1)c1nnn(C)n1)CCCN2C[C@H]1CC[C@H](C(=O)O)CC1 | -3.75%
Cl.NCCCC[C@H](N)C(=O)O [L-Lysine hydrochloride] | -10.8%
CC(C(=O)O)c1cccc(C(=O)c2ccccc2)c1 (stereo not drawn) [Ketoprofen] | 22.2%
COC(=O)N[C@H](C(=O)N1CCC[C@H]1c1ncc(-c2ccc(-c3ccc(-c4cnc([C@@H]5CCCN5C(=O)[C@@H](NC(=O)OC)C(C)C)[nH]4)cc3)cc2)[nH]1)C(C)C | 3.76%
CC(C)(C)C(=O)C(Oc1ccc(Cl)cc1)n1ccnc1 (stereo not drawn) [Climbazole] | > 100%
Cc1ccccc1OCC(O)CO (stereo not drawn) [Mephenesin] | 11.6%
O=C1CN(/N=C/c2ccc([N+](=O)[O-])o2)C(=O)N1 [Nitrofurantoin] | -6.8%
